Some of the results follow. Repeats are few or missing, and single values can be far off.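 Imaging used 1,536-well plates; nuclei positive for cleaved PARP by antibody were divided by total DNA-stained nuclei to yield the apoptosis fraction. Doses for screening kept most cells viable, and cell lines differ markedly in resting and induced cleaved-PARP levels.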
Assays:
Test in all cases: cleaved PARP positive nuclei fraction relative to DMSO control; melanoma cells; higher = more apoptosis
Details in all cases: library dose: low library concentration; 72 h
MZ2-MEL = tested on: MZ2-MEL
MeWo = tested on: MeWo
RPMI7951 = tested on: RPMI7951
RVH-421 = tested on: RVH-421
SkMel28 = tested on: SkMel28
SkMel2 = tested on: SkMel2
SkMel30 = tested on: SkMel30
SkMel5 = tested on: SkMel5
UACC257 = tested on: UACC257
UACC62 = tested on: UACC62
WM115 = tested on: WM115
WM1716 = tested on: WM1716
WM1745 = tested on: WM1745
WM3526 = tested on: WM3526
WM3619 = tested on: WM3619
WM451Lu = tested on: WM451Lu

| Structure (SMILES) | cleaved PARP positive nuclei fraction (MZ2-MEL) [%] | cleaved PARP positive nuclei fraction (MeWo) [%] | cleaved PARP positive nuclei fraction (RPMI7951) [%] | cleaved PARP positive nuclei fraction (RVH-421) [%] | cleaved PARP positive nuclei fraction (SkMel28) [%] | cleaved PARP positive nuclei fraction (SkMel2) [%] | cleaved PARP positive nuclei fraction (SkMel30) [%] | cleaved PARP positive nuclei fraction (SkMel5) [%] | cleaved PARP positive nuclei fraction (UACC257) [%] | cleaved PARP positive nuclei fraction (UACC62) [%] | cleaved PARP positive nuclei fraction (WM115) [%] | cleaved PARP positive nuclei fraction (WM1716) [%] | cleaved PARP positive nuclei fraction (WM1745) [%] | cleaved PARP positive nuclei fraction (WM3526) [%] | cleaved PARP positive nuclei fraction (WM3619) [%] | cleaved PARP positive nuclei fraction (WM451Lu) [%] |
| --- | --- | --- | --- | --- | --- | --- | --- | --- | --- | --- | --- | --- | --- | --- | --- | --- |
| O=C(Nc1cc(C(F)(F)F)cc(C(F)(F)F)c1)c1cc(Cl)ccc1O + O=C(O)C(=O)Nc1sc2c(c1C(=O)O)CCNC2 [TCS401] (first compound 0.016 µM, partner dose 1.66667 µM) | 42.9 | 72.2 | 67 | 62.8 | 187 | 75.1 | 36.7 | 81.7 | 83.9 | 102 | 63.4 | 87.9 | 95.3 | 141 | 70.8 | 37.3 |
| Cc1cn(-c2cc(NC(=O)c3ccc(C)c(Nc4nccc(-c5cccnc5)n4)c3)cc(C(F)(F)F)c2)cn1 [nilotinib] + O=C(O)c1ccc(-c2c[nH]c3ncc(-c4ccccc4)cc23)cc1C1CCCC1 [GSK650394] (first compound 0.2 µM, partner dose 0.16 µM) | 113 | 99.8 | 50.5 | 55.1 | 131 | 77.2 | 61.7 | 67.9 | 51.4 | 241 | 106 | 136 | 101 | 52.7 | 83.2 | 90.1 |
| COc1cc([C@@H]2c3cc4c(cc3[C@@H](O[C@@H]3O[C@@H]5CO[C@@H](C)O[C@H]5[C@H](O)[C@H]3O)[C@H]3COC(=O)[C@H]23)OCO4)cc(OC)c1O [etoposide] + COc1ccc(-c2ccc3c(N4CCOCC4)nc(N4C[C@@H](C)O[C@@H](C)C4)nc3n2)cc1CO [KU0063794] (first compound 0.02 µM, partner dose 0.02 µM) | 68 | 39.9 | 66.7 | 42.8 | 219 | 120 | 102 | 168 | 115 | 236 | 128 | 56.2 | 90.9 | 75.1 | 102 | 45.8 |
| O=C(Nc1cc(C(F)(F)F)cc(C(F)(F)F)c1)c1cc(Cl)ccc1O + O=C1NC(=O)/C(=C/c2ccc(-c3ccc(F)cc3O)o2)S1 [AS252424] (first compound 0.016 µM, partner dose 1 µM) | 116 | 85.5 | 67.7 | 97.2 | 100 | 21 | 43.7 | 144 | 63.2 | 339 | 130 | 159 | 80.3 | 78.3 | 92.9 | 80 |
| Cc1ccc(Nc2nccc(N(C)c3ccc4c(C)n(C)nc4c3)n2)cc1S(N)(=O)=O [Pazopanib] + Cc1cc(N2CCOCC2)cc2[nH]c(-c3c(NC[C@@H](O)c4cccc(Cl)c4)cc[nH]c3=O)nc12 [BMS536924] (first compound 0.4 µM, partner dose 0.2 µM) | 219 | 53.9 | 96.7 | 29.4 | 29 | 153 | 106 | 59.8 | 108 | 109 | 104 | 86.6 | 115 | 35.1 | 204 | 47.5 |
| O=C(Nc1cc(C(F)(F)F)cc(C(F)(F)F)c1)c1cc(Cl)ccc1O + O=S(=O)(c1ccccc1)N(CC(F)(F)F)c1ccc(C(O)(C(F)(F)F)C(F)(F)F)cc1 [T0901317] (first compound 0.016 µM, partner dose 1.4 µM) | 107 | 208 | 41.8 | 88.2 | 88 | 129 | 22 | 186 | 196 | 170 | 29.6 | 48.7 | 106 | 143 | 76.5 | 431 |
| Cc1ccc(Nc2nccc(N(C)c3ccc4c(C)n(C)nc4c3)n2)cc1S(N)(=O)=O [Pazopanib] + COc1cc(Nc2ncc(F)c(Nc3ccc4c(n3)NC(=O)C(C)(C)O4)n2)cc(OC)c1OC [Tamatinib] (first compound 0.4 µM, partner dose 0.4 µM) | 142 | 64.6 | 137 | 26.5 | 77 | 95.2 | 259 | 101 | 93.5 | 47.9 | 118 | 95.4 | 98.6 | 66.6 | 105 | 46.6 |
| COc1cc([C@@H]2c3cc4c(cc3[C@@H](O[C@@H]3O[C@@H]5CO[C@@H](C)O[C@H]5[C@H](O)[C@H]3O)[C@H]3COC(=O)[C@H]23)OCO4)cc(OC)c1O [etoposide] + CC(C)(C)c1cnc(CSc2cnc(NC(=O)C3CCNCC3)s2)o1 [SNS-032] (first compound 0.02 µM, partner dose 0.01 µM) | 188 | 66.2 | 157 | 36.7 | 65.2 | 99.6 | 64.7 | 52 | 120 | 46.3 | 141 | 97.1 | 102 | 53.3 | 108 | 62.3 |
| O=c1[nH]nc(Sc2ncc([N+](=O)[O-])s2)n1-c1ccc2c(c1)OCCO2 + O=c1cc(-c2cccc3c2Sc2ccccc2S3)oc(N2CCOCC2)c1 [KU55933] (first compound 0.2 µM, partner dose 1 µM) | 38.4 | 57.8 | 48.8 | 73 | 138 | 37.3 | 68.3 | 76.2 | 57.4 | 176 | 66.4 | 24 | 82 | 270 | 106 | 79.5 |
| COc1cc([C@@H]2c3cc4c(cc3[C@@H](O[C@@H]3O[C@@H]5CO[C@@H](C)O[C@H]5[C@H](O)[C@H]3O)[C@H]3COC(=O)[C@H]23)OCO4)cc(OC)c1O [etoposide] + OCCn1cc(-c2cnc3nnn(Cc4ccc5ncccc5c4)c3n2)cn1 [PF04217903] (first compound 0.02 µM, partner dose 1 µM) | 145 | 72 | 164 | 45 | 97.6 | 80 | 66.9 | 69.9 | 47.4 | 121 | 102 | 106 | 86.3 | 44.8 | 110 | 29.5 |
| CC[C@]1(O)C[C@H]2CN(CCc3c([nH]c4ccccc34)[C@@](C(=O)OC)(c3cc4c(cc3OC)N(C=O)[C@H]3[C@@](O)(C(=O)OC)[C@H](OC(C)=O)[C@]5(CC)C=CCN6CC[C@]43[C@@H]65)C2)C1 [vincristine] + c1cc(-c2cnn3cc(-c4ccc(OCCN5CCCCC5)cc4)cnc23)ccn1 [Dorsomorphin] (first compound 0.0001 µM, partner dose 0.4 µM) | 142 | 132 | 184 | 140 | 593 | 45.9 | 190 | 179 | 1210 | 134 | 1410 | 260 | 124 | 118 | 190 | 300 |
| Cc1ccc(Nc2nccc(N(C)c3ccc4c(C)n(C)nc4c3)n2)cc1S(N)(=O)=O [Pazopanib] + COc1ccc(COc2ccc(Cc3cnc(N)nc3N)cc2OC)cc1 [GW2580] (first compound 0.4 µM, partner dose 1 µM) | 65.9 | 87.8 | 413 | 44.4 | 102 | 138 | 128 | 108 | 132 | 84.7 | 87.3 | 124 | 93.2 | 192 | 97.3 | 103 |
| O=C(/C=C/c1cccnc1)NCCCCC1CCN(C(=O)c2ccccc2)CC1 + CC(C)CCN1c2nc(Nc3cc(F)c(O)c(F)c3)ncc2N(C)C(=O)C1C [BID1870] (first compound 0.01 µM, partner dose 0.2 µM) | 373 | 103 | 103 | 76.9 | 103 | 577 | 91.7 | 74.2 | 160 | 160 | 125 | 23.8 | 82.1 | 98.8 | 94.1 | 19.9 |
| Cc1cn(-c2cc(NC(=O)c3ccc(C)c(Nc4nccc(-c5cccnc5)n4)c3)cc(C(F)(F)F)c2)cn1 [nilotinib] + NC(=O)Nc1cc(-c2cccc(F)c2)sc1C(=O)N[C@H]1CCCNC1 [AZD7762] (first compound 0.2 µM, partner dose 0.02 µM) | 47.4 | 80.8 | 175 | 87 | 22.6 | 118 | 68.5 | 44.8 | 45.6 | 73 | 185 | 91.1 | 104 | 73.8 | 238 | 105 |
| Cc1ccc(Nc2nccc(N(C)c3ccc4c(C)n(C)nc4c3)n2)cc1S(N)(=O)=O [Pazopanib] + O=C(Nc1cccc(Cl)c1)Nc1ncc(CCNc2ncnc3ccsc23)s1 [SNS314] (first compound 0.4 µM, partner dose 0.0008 µM) | 93.3 | 54.7 | 262 | 77.4 | 227 | 82.7 | 227 | 93.5 | 72.4 | 95.9 | 180 | 160 | 99.5 | 67.5 | 109 | 109 |
| O=C(/C=C/c1cccnc1)NCCCCC1CCN(C(=O)c2ccccc2)CC1 + COc1cc(N2CCC(N3CCN(C)CC3)CC2)ccc1Nc1ncc(Cl)c(Nc2ccccc2S(=O)(=O)C(C)C)n1 [NVP-TAE684] (first compound 0.01 µM, partner dose 0.08 µM) | 442 | 106 | 210 | 259 | 48.9 | 568 | 87.4 | 170 | 18.2 | 80.7 | 61.5 | 45 | 116 | 94.1 | 93.5 | 31 |
| Cc1ccc(Nc2nccc(N(C)c3ccc4c(C)n(C)nc4c3)n2)cc1S(N)(=O)=O [Pazopanib] + O=c1cc(-c2cccc3c2Sc2ccccc2S3)oc(N2CCOCC2)c1 [KU55933] (first compound 0.4 µM, partner dose 1 µM) | 49 | 29.8 | 75.2 | 191 | 192 | 111 | 64.9 | 141 | 65.5 | 71.3 | 250 | 138 | 86.6 | 281 | 90.1 | 41 |
| Cc1ccc(Nc2nccc(N(C)c3ccc4c(C)n(C)nc4c3)n2)cc1S(N)(=O)=O [Pazopanib] + COc1cc2ncnc(Nc3ccc(Oc4ccccc4)cc3)c2cc1OC [SrcI1] (first compound 0.4 µM, partner dose 2 µM) | 92.1 | 29.2 | 34 | 112 | 194 | 152 | 50.7 | 76.7 | 163 | 134 | 51.2 | 48.1 | 91.7 | 85.3 | 96.7 | 104 |

An excerpt from above, reduced to cleaved PARP positive nuclei fraction (SkMel28) [%] and cleaved PARP positive nuclei fraction (RPMI7951) [%]:
Structure (SMILES) | cleaved PARP positive nuclei fraction (SkMel28) [%] | cleaved PARP positive nuclei fraction (RPMI7951) [%]
O=c1[nH]nc(Sc2ncc([N+](=O)[O-])s2)n1-c1ccc2c(c1)OCCO2 + O=c1cc(-c2cccc3c2Sc2ccccc2S3)oc(N2CCOCC2)c1 [KU55933] (first compound 0.2 µM, partner dose 1 µM) | 138 | 48.8
Cc1ccc(Nc2nccc(N(C)c3ccc4c(C)n(C)nc4c3)n2)cc1S(N)(=O)=O [Pazopanib] + O=c1cc(-c2cccc3c2Sc2ccccc2S3)oc(N2CCOCC2)c1 [KU55933] (first compound 0.4 µM, partner dose 1 µM) | 192 | 75.2

Reference: the supplement of paper PMC4604168 (melanoma cell lines)
